Structures can show the parent of a compound that is named as a salt. Some of the results follow. Repeats in this data set agree poorly, so a single value says little.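 In a drug-repurposing library screen, luminescence reads luciferase driven by eight TEAD-binding elements, stably integrated into human kidney-derived cells. Compounds scoring over five robust Z scores above the plate mean are called hits.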
Tested on: HEK293A TEAD-LUC reporter
Test: TEAD-luciferase reporter activity (YAP activation), robust Z score vs plate; higher = stronger YAP/TEAD activation
Conditions: 24 h

Row | Structure (SMILES) | TEAD-luciferase reporter activity (compound concentration: 200 nM) | TEAD-luciferase reporter activity (compound concentration: 2 uM) | TEAD-luciferase reporter activity (compound concentration: 10 uM)
1 | C[C@@H](O)[C@H](N)C(=O)N[C@@H](CO)C(=O)N[C@@H](CCCCN)C(=O)N[C@@H](Cc1ccc(O)cc1)C(=O)N[C@@H](CCCNC(=N)N)C(=O)O | inactive: -0.316 | inactive: 2.95 | inactive: 0.0394
2 | CC(C)(C)OC(=O)N[C@H]1CCCCCCCCC[C@@H](B(O)O)NC(=O)[C@@H]2C[C@@H](OC(=O)N3Cc4ccccc4C3)CN2C1=O | inactive: -0.478 | inactive: -0.912 | inactive: -0.497
3 | CCC(Cc1ccccc1)c1cc(O)c(C(CC)c2ccccc2)c(=O)o1 (configuration not stated) | inactive: -1.36 | inactive: -0.474 | inactive: -2.39
4 | CNc1ccc([N+](=O)[O-])cc1C(=O)NCc1ccc(OC(F)F)c(OC)c1 | inactive: 1.41 | inactive: -0.575 | inactive: -1.13
5 | COc1cccc(N2CCN(C3=Nc4c(F)cccc4[C@H](CC(=O)O)N3c3cc(C(F)(F)F)ccc3OC)CC2)c1 [letermovir] | inactive: -0.989 | inactive: -0.979 | inactive: -0.507
6 | Nc1nc(Cl)nc2c1ncn2[C@H]1C[C@H](O)[C@@H](CO)O1 [Cladribine] |  | inactive: -0.0306 | 
7 | Nc1nc(Cl)nc2c1ncn2[C@H]1C[C@H](O)[C@@H](CO)O1 | inactive: -1.56 |  | inactive: 2.53
8 | Cn1c(C(=O)NC(=N)N)cc2c(C(F)(F)F)ccc(OS(=O)(=O)O)c21 | inactive: -0.618 | inactive: -0.623 | inactive: 0.484
9 | CCCC(=O)OCC(COC(=O)CCC)OC(=O)CCC [tributyrin] | inactive: 0.573 |  | inactive: 2.48
10 | CC(=O)OCCN1CCN(CCCN2c3ccccc3Sc3ccc(Cl)cc32)CC1 | inactive: -0.523 | inactive: -1.04 | inactive: -0.25
11 | CC(C)=CCOc1cc(NC(=O)c2ccoc2C)ccc1Cl | inactive: -1.11 | inactive: -0.333 | inactive: -1.29
12 | CCC1=C(C)C2=N/C/1=C\c1[nH]c(c(c1C)C(=O)[O-])/C(=C/1\N=C(/C=c/3\[nH]/c(=C\2)/c(C=C)c3C)[C@H]([C@@H]1CCC(=O)[O-])C)/CC(=O)N[C@H](C(=O)[O-])CC(=O)[O-] [Talaporfin (sodium)] | inactive: 0.807 |  | inactive: 0.109
13 | COC(=O)C(C)c1ccc2oc(-c3ccc(F)cc3)nc2c1 (configuration not stated) | inactive: -0.881 | inactive: -2.16 | inactive: -1.26
14 | COc1ccc(-c2nc3cc(C4=NNC(=O)CC4C)ccc3[nH]2)cc1 (configuration not stated) [pimobendan] | inactive: -1.08 | inactive: 0.763 | inactive: 1.99
15 | CN(C)C(=O)CCCOC(=O)C(C)(C)Oc1ccc(Cl)cc1 | inactive: -0.882 |  | inactive: 0.476
16 | OC1(CN2CCC(COc3noc4cccc(O[C@@H]5CCOC5)c34)CC2)CCOCC1 | inactive: 2.15 | inactive: -0.717 | inactive: -0.471
17 | C[C@](N)(Cc1c[nH]c2ccccc12)C(=O)O [alpha-Methyltryptophan] | inactive: -0.299 | inactive: -1.14 | inactive: 1.28
18 | CC(C1=C(CCN(C)C)Cc2ccccc21)c1ccccn1 (configuration not stated) | inactive: -2.1 | inactive: -0.518 | inactive: 2.21
19 | CCSc1ccc2c(c1)N(CCCN1CCN(C)CC1)c1ccccc1S2 [Thiethylperazine dimalate] | inactive: 4.12 | inactive: -1.12 | inactive: -1.61
20 | CCc1cc(-c2noc(-c3cc(OC)nc(C4CCCC4)c3)n2)cc(C)c1OC[C@@H](O)CO | inactive: -0.893 | inactive: -0.279 | inactive: 0.435
21 | O=C(c1ccc(Cl)cc1)N1CCC(=Cc2ccc(C3=NCCO3)cc2)CC1 | inactive: -3.82 | inactive: -1.15 | inactive: 1.86
22 | N=C(N)NC(=O)c1ccc(N2CCN(C(=O)c3ccc[nH]3)CC2)c(C(F)(F)F)c1 [Sabiporide mesilate] | inactive: -1.07 | inactive: -1.38 | inactive: -0.342
23 | C[C@](N)(CO)c1ncc(-c2ccc(OCc3ccc(-c4ccccc4)cc3)c(C(F)(F)F)c2)[nH]1 | inactive: -1.57 | inactive: 0.0368 | inactive: -0.547
24 | O=P1(O)OP(=O)(O)O[C@H]2[C@H](O1)[C@@H]1OP(=O)(O)OP(=O)(O)O[C@@H]1[C@H]1OP(=O)(O)OP(=O)(O)O[C@H]21 | inactive: 0.211 | inactive: -2.21 | inactive: 0.576
25 | CC1(C)CN(c2ncc(C(=O)Nc3cccc(C(F)(F)F)c3)c(N)n2)C(=O)N1 [Imanixil] | inactive: -0.762 | inactive: -0.528 | inactive: 0.147
26 | O=C([C@@H]1CSCN1C(=O)CC1Cc2ccccc2C1)N1CCCC1 | inactive: -0.943 | inactive: -1.48 | active: 5.49

Just TEAD-luciferase reporter activity (compound concentration: 200 nM) (2 entries from above):
Row | Structure (SMILES) | TEAD-luciferase reporter activity (compound concentration: 200 nM)
5 | COc1cccc(N2CCN(C3=Nc4c(F)cccc4[C@H](CC(=O)O)N3c3cc(C(F)(F)F)ccc3OC)CC2)c1 [letermovir] | inactive: -0.989
18 | CC(C1=C(CCN(C)C)Cc2ccccc21)c1ccccn1 (configuration not stated) | inactive: -2.1

Next records

Row | Structure (SMILES) | TEAD-luciferase reporter activity (compound concentration: 200 nM) | TEAD-luciferase reporter activity (compound concentration: 2 uM) | TEAD-luciferase reporter activity (compound concentration: 10 uM)
27 | CC(C)(C)c1cc(CC2SCNC2=O)cc(C(C)(C)C)c1O (configuration not stated) [Tazofelone] | inactive: -0.655 | inactive: -0.785 | inactive: -0.666
28 | COc1cc(NC(C)=O)ccc1OCCCN1CCN(c2ccccc2F)CC1 [Mafoprazine mesylate] | inactive: -0.697 | inactive: -1.03 | inactive: -1.77
29 | CC1=C(/C=C/C(C)=C/C=C/C(C)=C/C=O)C(C)(C)CCC1 [Retinaldehyde] | inactive: -0.49 | inactive: -0.55 | inactive: -0.916
30 | O=C([O-])[C@H]1/C(=C/CO)O[C@@H]2CC(=O)N21 [clavulanic acid, Rexahn] | inactive: -1.03 |  | inactive: 2.84
31 | CCS(=O)(=O)Nc1ncc(C(F)(F)F)cc1NC(=O)C1CCCCC1 | inactive: -2.3 | inactive: -1.22 | inactive: -0.113
32 | O=C(Nc1ccc(S(=O)(=O)N2CCOCC2)cc1)c1cc(Cl)ccc1NS(=O)(=O)c1ccc(Cl)s1 [ataciguat] | inactive: -2.53 | inactive: -0.22 | inactive: 1.97
33 | O=C(NC(=O)c1ccccc1)NC1CCN(Cc2ccc3ccccc3c2)CC1 | inactive: 0.278 | inactive: 0.843 | inactive: -1.49
34 | CCN(CC)CCN(CC)CC(=O)Nc1ccccc1Cl | inactive: 0.0162 | inactive: -1.78 | inactive: -0.115
35 | CCCOC(=O)c1ccc(N)cc1 [propyl 4-aminobenzoate] | inactive: -1.04 | inactive: 2.3 | inactive: 1.56
36 | CC[C@H]1OC(=O)[C@H](C)[C@@H](O[C@H]2C[C@@](C)(OC)[C@@H](O)[C@H](C)O2)[C@H](C)[C@@H](O[C@@H]2O[C@H](C)C[C@H](N(C)C)[C@H]2O)[C@](C)(O)C[C@](C)(F)C(=O)[C@H](C)[C@@H](O)[C@]1(C)O [Flurithromycin] | inactive: 0.183 | inactive: 3.94 | inactive: -0.615
37 | CCCc1cc(Cl)c2oc(Cc3ccc(OC)cc3)c(C)c2c1O | inactive: -0.778 | inactive: -0.698 | inactive: -0.578
38 | CN[C@@H]1CC[C@H](c2ccc(Cl)c(Cl)c2)c2ccccc21 [sertraline hydrochloride] | inactive: -1.37 | inactive: -1.03 | inactive: -1.32
39 | CS(=O)(=O)CC[C@H](N)C(=O)N[C@@H](CCC(=O)O)C(=O)N[C@@H](Cc1cnc[nH]1)C(=O)N[C@@H](Cc1ccccc1)C(=O)N[C@H](CCCCN)C(=O)N[C@@H](Cc1ccccc1)C(=O)O | inactive: -1.31 | inactive: -0.244 | inactive: -1.72
40 | CN1CCN(CCCN2c3ccccc3Sc3ccc(C(F)(F)F)cc32)CC1 | inactive: 1.14 |  | inactive: 3.32
41 | CN1CCN(CCCN2c3ccccc3Sc3ccc(C(F)(F)F)cc32)CC1 [Trifluoperazine hydrochloride] |  | inactive: -0.305 | 
42 | O=C(Nc1ccc(O)cc1)c1ccccc1O [N-Salicoylaminophenol] | inactive: 1.11 | inactive: 1.51 | inactive: -0.162
43 | Oc1ccc(C(O)CNCCCCCCNCC(O)c2ccc(O)c(O)c2)cc1O (configuration not stated) [hexoprenaline] | inactive: -0.224 | inactive: 2.42 | inactive: -0.551
44 | CC(C)(CCCCCC(O)CCCCCC(C)(C)C(=O)O)C(=O)O [Bempedoic acid] | inactive: 0.822 | inactive: 0.845 | inactive: -1.35
45 | CO[C@@H]1COCC[C@@H]1N[C@@H]1CC[C@@](C(=O)N2C[C@@H]3C[C@H]2CN3c2cc(C(F)(F)F)ncn2)(C(C)C)C1 | inactive: -0.464 | inactive: -2.15 | inactive: -1.17
46 | CSc1ccc(C(=O)c2nc(O)[nH]c2C)cc1 [enoximone] | inactive: 0.715 | inactive: -1.92 | inactive: 1.12
47 | C=CC(=O)N1CC/C(=C\c2ccc(F)c([N+](=O)[O-])c2)C(=O)/C(=C/c2ccc(F)c([N+](=O)[O-])c2)C1 | inactive: 0.445 | inactive: -2.74 | inactive: -0.489
48 | CC(C)CCN1CCCCC12Cc1ccccc1CNC2=O (configuration not stated) | inactive: 0.999 |  | inactive: 0.916
49 | O=C1N=NC(=O)c2c1nc1cc(Cl)ccc1c2O | inactive: 1.75 | inactive: 1.34 | inactive: -0.528
50 | CS(=O)(=O)Nc1cc2occ(NC=O)c(=O)c2cc1Oc1ccccc1 [Iguratimod] | inactive: -0.715 | inactive: 2.67 | inactive: -2.37
51 | C=CCSCC1Nc2cc(Cl)c(S(N)(=O)=O)cc2S(=O)(=O)N1 (configuration not stated) | inactive: 2.96 | inactive: -1.06 | inactive: -0.0554

Reference: the supplement of paper PMC10735217
